Reference: US20190185518A9, “WARHEAD-CONTAINING PEPTIDOMIMETIC MACROCYCLES AS MODULATORS OF BFL-1” (AILERON Therapeutics, Inc., priority 2017, published 2019)
Like-named read-outs stand apart in the source and are kept apart here. For at least one compound, name, drawing or mass did not settle the structure. Positions of bridges follow the written chain, without caps; N, C: chain ends. Non-standard residues stand in square brackets, D forms with d. Residues, ends and D or L forms follow the SMILES beside them. Ala(1-Adamantyl) = N[C@@H](CC12CC3CC(CC(C3)C1)C2)C(=O)O; R8 = C=CCCCCCC[C@@](C)(N)C(=O)O; S5 = C=CCCC[C@](C)(N)C(=O)O

Protein sequences, listed by entry. Tags and fused reporters are not part of them.
UniProt Q07817, whole entry, species assumed: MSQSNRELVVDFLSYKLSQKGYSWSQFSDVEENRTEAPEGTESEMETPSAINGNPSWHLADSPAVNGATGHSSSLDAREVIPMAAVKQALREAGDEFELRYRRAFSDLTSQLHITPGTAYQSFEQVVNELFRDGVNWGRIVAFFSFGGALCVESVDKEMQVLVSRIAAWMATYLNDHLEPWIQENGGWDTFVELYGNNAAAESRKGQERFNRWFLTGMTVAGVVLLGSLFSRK
UniProt P10415, whole entry, species assumed: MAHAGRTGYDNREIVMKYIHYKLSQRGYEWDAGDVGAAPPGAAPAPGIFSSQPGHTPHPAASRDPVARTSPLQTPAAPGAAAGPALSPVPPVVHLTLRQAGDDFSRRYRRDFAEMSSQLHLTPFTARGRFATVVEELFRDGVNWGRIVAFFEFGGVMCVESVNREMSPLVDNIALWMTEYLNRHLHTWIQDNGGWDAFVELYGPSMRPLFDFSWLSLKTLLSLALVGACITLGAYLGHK
UniProt Q07820, whole entry, species assumed: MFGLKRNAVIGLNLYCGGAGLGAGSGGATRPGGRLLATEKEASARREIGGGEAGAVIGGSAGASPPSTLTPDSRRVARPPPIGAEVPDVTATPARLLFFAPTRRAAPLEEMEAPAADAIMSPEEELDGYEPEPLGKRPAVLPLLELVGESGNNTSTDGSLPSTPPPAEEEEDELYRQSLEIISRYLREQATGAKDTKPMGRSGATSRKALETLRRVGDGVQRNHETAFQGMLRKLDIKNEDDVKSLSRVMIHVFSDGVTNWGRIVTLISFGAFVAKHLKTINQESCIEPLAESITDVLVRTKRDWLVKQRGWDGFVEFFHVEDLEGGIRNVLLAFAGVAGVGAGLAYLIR

Tests used:
Bcl-xL = Bcl-xL (Homo sapiens, UniProt Q07817); experiment: Ki determination for Bcl-xL (BCL-2 family binding spectrum)
Description: (§1) To assess the binding and affinity of compounds that antagonize the interaction between a peptide and an acceptor protein, a fluorescence polarization assay (FPA) utilizing a fluoresceinated peptidomimetic macrocycle derived from a peptidomimetic precursor sequence is used, for example. The FPA technique measures the molecular orientation and mobility using polarized light and fluorescent tracer. […] A compound that antagonizes the interaction between the fluoresceinated peptidomimetic macrocycle and an acceptor protein will be detected in a competitive binding FPA experiment.
(§2) For example, putative antagonist compounds (1 nM to 1 mM) and a fluoresceinated peptidomimetic macrocycle (25 nM) are incubated with the acceptor protein (50 nM) in binding buffer (140 mM NaCl, 50 mM Tris-HCL, pH 7.4) for 30 minutes at room temperature. Antagonist binding activity is measured, for example, by fluorescence polarization on a luminescence spectrophotometer (e.g. Perkin-Elmer LS50B). Kd values may be determined by nonlinear regression analysis using, for example, Graphpad Prism software (GraphPad Software, Inc., San Diego, Calif.).

Bcl-2 = Bcl-2 (Homo sapiens, UniProt P10415); experiment: Ki determination for Bcl-2 (BCL-2 family binding spectrum); details: TABLE 8
Description: as §1, §2

Mcl-1 = Mcl-1 (Homo sapiens, UniProt Q07820); experiment: Ki determination for Mcl-1 (BCL-2 family binding spectrum); details: TABLE 8
Description: as §1
Antagonist binding activity is measured, for example, by fluorescence polarization on a luminescence spectrophotometer (e.g. Perkin-Elmer LS50B). Kd values may be determined by nonlinear regression analysis using, for example, Graphpad Prism software (GraphPad Software, Inc., San Diego, Calif.).

| SMILES | Ki (Bcl-xL; TABLE 8, read-out: Bcl-xL Ki) | Ki (Bcl-2) | Ki (Mcl-1) | Ki (Bcl-xL; read-out: Ki BCL-XL) |
| --- | --- | --- | --- | --- |
| CC[C@H](C)[C@H](NC(C)=O)C(=O)N[C@@H](Cc1c[nH]c2ccccc12)C(=O)N[C@H](C(=O)N[C@@H](C)C(=O)N[C@@H](CCC(N)=O)C(=O)N[C@@H](CCC(=O)O)C(=O)N[C@@H](CC(C)C)C(=O)N[C@@H](CCCNC(=N)N)C(=O)N[C@@]1(C)CCCC=CCCC[C@@](C)(C(=O)N[C@@H](Cc2ccccc2)C(=O)N[C@@H](CC(N)=O)C(=O)N[C@@H](C)C(=O)N[C@@H](Cc2ccc(O)cc2)C(=O)N[C@@H](Cc2ccc(O)cc2)C(=O)N[C@@H](C)C(=O)N[C@@H](CCCNC(=N)N)C(=O)N[C@@H](CCCNC(=N)N)C(N)=O)NC(=O)[C@H](CC(=O)O)NC(=O)CNC(=O)[C@H]([C@@H](C)CC)NC1=O)[C@@H](C)CC [BIM SAHBA1, reference compound] | 6.2 nM | 29.6 nM | 2.7 nM | – |
| CC[C@H](C)[C@H](NC(C)=O)C(=O)N[C@@H](Cc1c[nH]c2ccccc12)C(=O)N[C@H](C(=O)N[C@@H](C)C(=O)N[C@@H](CCC(N)=O)C(=O)N[C@@H](C)C(=O)N[C@@H](CC12CC3CC(CC(C3)C1)C2)C(=O)N[C@@H](CCCNC(=N)N)C(=O)N[C@]1(C)CCCCCC/C=C\CCC[C@@](C)(C(=O)N[C@@H](Cc2ccc(O)cc2)C(=O)N[C@@H](Cc2ccc(O)cc2)C(=O)N[C@@H](C)C(N)=O)NC(=O)[C@H](CC(N)=O)NC(=O)[C@H](Cc2ccccc2)NC(=O)[C@H](C)NC(=O)[C@H](CC(=O)O)NC(=O)CNC(=O)[C@H]([C@@H](C)CC)NC1=O)[C@@H](C)CC [compound 1691] (Ac-IWIAQA[Ala(1-Adamantyl)]R[R8]IGDAFN[S5]YYA-NH2; staple (Z) 9-16) | – | – | – | > 1000 nM |
